Results are given as percent effect.
How 0% and 100% were set is not recorded. Most values in the screen are low, and negative values occur.
Compounds were drawn at random from those tested, without regard to their results.

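Whole-cell growth test on Mycobacterium tuberculosis, read after 4 days in a medium based on cholesterol and the lipid DPPC; the read-out is not stated. Tested at 500 µM. The record gives no direction; compounds that gave an IC50 in retests scored well above the rest, so higher reads as more growth inhibition. Size under these conditions: about 18,000 compounds, about 900 of them at 50% or above in at least one test.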

| # | compound | percent effect |
|---|---|---|
| 1 | `COc1cc(Br)ccc1CN` | -9.392 |
| 2 | `NC(=O)c1cc2c(cc1Br)OCO2` | -5.417 |
| 3 | `Cc1cccnc1CNc1ncnc2nc[nH]c12` | -10.04 |
| 4 | `Nc1nnc(CCCN2C(=O)c3ccccc3C2=O)s1` | -3.657 |
| 5 | `CC(C)N1C(=O)CC(NC(=O)c2cc(Br)c[nH]2)C1=O` (centres undefined) | 6.684 |
| 6 | `CN(CCCO)C1CCN(C(=O)CC(C)(C)C)CC1` | -4.158 |
| 7 | `NCCCc1nnc(N)s1` | 17.14 |
| 8 | `CC(Oc1ccccc1)C(=O)NC1CCN(C)CC1` (centres undefined) | 17.02 |
| 9 | `COC(=O)CC1CNc2ccccc21` (centres undefined) | 11.26 |
| 10 | `CCN(CC(=O)NC)S(=O)(=O)c1ccc(C(N)=O)cc1` | -21.79 |
| 11 | `CC(C)(C)CC(=O)NCC(=O)N1CCOC(C)(C)C1` | -5.88 |
| 12 | `NC(=O)CCc1ccc(Cl)s1` | 61.8 |
| 13 | `O=C(NC(c1ccccn1)C(F)(F)F)C1CCOCC1` (centres undefined) | 0.06998 |
| 14 | `CCOCc1nnc(NCc2nc(C)cs2)o1` | -7.825 |
| 15 | `Cc1nc(C(=O)N2C[C@@H](CO)[C@H](N(C)C)C2)co1` | 3.774 |
| 16 | `NCc1nnc2n1CC(C(F)(F)F)CC2` (centres undefined) | 3.989 |
| 17 | `c1ccc2[nH]c(N3CCNCC3)nc2c1` | 18.91 |
| 18 | `CCOC(=O)N1CCN(C(=O)c2cccc(F)c2)CC1` | 37.12 |
| 19 | `OCCN1CCN(Cc2cn3cc(Br)ccc3n2)CC1` | 21.32 |
| 20 | `Cc1ccc(NC(=O)CCN2CCN(C)CC2)cc1` | 18.71 |
| 21 | `Cc1cccc(Cn2c(CCN)n[nH]c2=O)c1` | -20.39 |
| 22 | `CCCNC(=O)CC(NCCC)C(N)=O` (centres undefined) | -13.14 |
| 23 | `Cc1ccc(NCc2ncc[nH]2)c(F)c1` | 32.11 |
| 24 | `COC(=O)c1ccc2oc(=O)[nH]c2c1` | 9.084 |
| 25 | `CC(C)(C)CC(O)CN` (centres undefined) | -11.38 |
| 26 | `COCCC1(CO)CCCN(Cc2csc(C)n2)C1` (centres undefined) | 1.794 |
| 27 | `NCCc1nc2c(s1)CCCC2` | 11.99 |
| 28 | `Cn1nnc2cc(C(=O)NC(C)(C)C)ccc21` | -2.542 |
| 29 | `C[C@@]1(O)CCN(C(=O)CCc2cn[nH]c2)C[C@@H]1O` | 7.524 |
| 30 | `CNCc1occc1C` | -19.19 |
| 31 | `COCCCOC1CN(C(=O)c2ccc(Cl)cn2)C1` | 66.75 |
| 32 | `Cc1cncc(C(=O)OC(C)CCN2CCCC2=O)c1` (centres undefined) | -1.608 |
| 33 | `NC(=O)C(c1ccc(Br)cc1F)N1CC[S+]([O-])CC1` (centres undefined) | -5.182 |
| 34 | `CNC(=O)CCN1CCOC(c2ccc(F)c(C)c2)C1` (centres undefined) | 0.5536 |
| 35 | `CCc1nsc(N2CCN(CCO)C(=O)C2)n1` | 11.99 |
| 36 | `O=C(CNC(=O)c1cc(F)cc(F)c1)Nc1nccs1` | -5.492 |
| 37 | `Cc1ccc(NC(=O)N2CCN(C)C(CO)C2)c(Cl)c1` (centres undefined) | 29.07 |
| 38 | `Cc1ccc(NC(=O)C(C)N2CCC(O)CC2)cc1` (centres undefined) | 15.79 |
| 39 | `N[C@@H]1C[C@H]1c1ccc(F)c(F)c1` | 24.27 |
| 40 | `CCNC(=O)Cn1ccc(N)n1` | 7.397 |
| 41 | `CC(C)(C(=O)N1CC[C@@H](O)C1)c1ccccc1` | -17.16 |
| 42 | `CCC(C)C(=O)NCCNc1ccc(C(F)(F)F)cn1` (centres undefined) | 77.04 |
| 43 | `O=C(NCCC(O)C(F)(F)F)c1c(O)cc(F)cc1F` (centres undefined) | 77.88 |
| 44 | `COc1cc(OC)c(C(=O)c2nccn2C)c(OC)c1` | 3.988 |
| 45 | `CC(C)CC(C(=O)Nc1cn[nH]c1)N1CCCCC1=O` (centres undefined) | 6.08 |
| 46 | `Cn1c(CCN)nc2c(F)cccc21` | -3.97 |
| 47 | `CCCC(=O)n1nc(-c2ccccc2)nc1N` | -3.84 |
| 48 | `CN1CCN(Cc2nccn2C)[C@H]2CS(=O)(=O)C[C@H]21` | -13.38 |
| 49 | `CC(Nc1ncnc2c1cnn2C)c1ccncc1` (centres undefined) | -26.32 |
| 50 | `Cc1nc2ccc(NC(=O)C(C)(C)S(C)(=O)=O)cn2n1` | 1.702 |
| 51 | `Cc1ccoc1C(=O)N1CCCC(C)C1` (centres undefined) | 13.77 |
| 52 | `COC(C)C(=O)NCCNc1cccc(Br)c1` (centres undefined) | -18.6 |
| 53 | `CCOCCNC(=O)N1CCN(S(C)(=O)=O)CC1` | 3.094 |
| 54 | `CCCc1nc(C(=O)NCCc2cccnc2)cs1` | 77.6 |
| 55 | `CC(C)C(CCO)NC(=O)c1nccc2ccccc12` (centres undefined) | 0.9315 |
| 56 | `COc1ccc(C(=O)Nc2cnn(C)c2)cc1` | -0.3016 |
| 57 | `CCc1cc(N2CCN(CCO)CC2)n2nccc2n1` | -5.377 |
| 58 | `CCC(O)(CC(N)=O)c1ccccc1` (centres undefined) | -26.3 |
| 59 | `COCC(=O)NCc1ccccc1CN1CCCC1=O` | -15.41 |
| 60 | `CCCNC(=O)C(C)N` (centres undefined) | 11.05 |
| 61 | `COc1ccccc1C(C)(C)N` | 4.806 |
| 62 | `CCOC(=O)C1(C)CCC(=O)NC1` (centres undefined) | 3.564 |
| 63 | `CN(C)[C@@H]1CN(C(=O)c2ccccc2Cl)C[C@H]1CO` | -14.22 |
| 64 | `COc1ccc(CNCCCSc2nnnn2C)cc1` | 24.81 |
| 65 | `Cc1ccc(C(=O)Nc2ccncc2F)cn1` | 1.799 |
| 66 | `N#Cc1cncc(S(N)(=O)=O)c1` | 2.422 |
| 67 | `O=C(Nc1ccncc1)NC1CCS(=O)(=O)C1` (centres undefined) | 3.014 |
| 68 | `CC(=O)Nc1nc(C(=O)NC2CCN(C)CC2)cs1` | 6.513 |
| 69 | `CC1(O)C(=O)Nc2ccccc21` (centres undefined) | -30.22 |
| 70 | `O=C(NCC1CC1)C1CCCN(CC2CC2)C1` (centres undefined) | -11.71 |
| 71 | `CCCN1CC(C(=O)NCc2cccnc2)CC1=O` (centres undefined) | -5.173 |
| 72 | `CC(C)CS(=O)(=O)CC(=O)NC1CCc2nccn2C1` (centres undefined) | -19.25 |
| 73 | `CC(C)N(C)C(=O)c1nccn1C` | -10.77 |
| 74 | `O=C1N(Cc2ccccc2)CCN1S(=O)(=O)Cl` | 72.5 |
| 75 | `CC(=O)N1CC(NC(=O)C2=CCCCCC2)C1` | -2.773 |
| 76 | `Cn1ncc(Cl)c1C(=O)NCCN1CCCCC1` | 22.15 |
| 77 | `Cn1nccc1C(=O)N1CCc2ccc(O)cc2C1` | 6.369 |
| 78 | `Clc1cnc(NCCNCc2cc[nH]n2)c(Cl)c1` | 53.71 |
| 79 | `Cc1n[nH]c(SCC(=O)NCCCN2CCOCC2)n1` | -4.795 |
| 80 | `Cc1n[nH]c(CN2CCCC3(CCNC3)C2)c1Cl` (centres undefined) | 33.65 |
| 81 | `O=C(CN1CCn2ccnc2C1)NCC(F)(F)F` | -1.973 |
| 82 | `Cn1cc(CC(CN)C(N)=O)cn1` (centres undefined) | -12.96 |
| 83 | `CCn1cnnc1CNC(=O)c1cc(Cl)c(Cl)n1C` | -5.018 |
| 84 | `CCOC(=O)C(C)NC(=O)c1cn(C)nc1SC` (centres undefined) | -12.98 |
| 85 | `Cc1cc(C(=O)N2C[C@H](C3CC3)[C@@H](N)C2)ccc1O` | 3.162 |
| 86 | `COc1ccc(NC(=O)NC2CCC(O)CC2)cc1` (centres undefined) | -1.051 |

For reference, 5 entries once more:

{"compound": "COc1ccc(NC(=O)NC2CCC(O)CC2)cc1", "stereo": "centres undefined", "percent effect": -1.051}
{"compound": "Cc1ccc(NC(=O)CCN2CCN(C)CC2)cc1", "percent effect": 18.71}
{"compound": "Nc1nnc(CCCN2C(=O)c3ccccc3C2=O)s1", "percent effect": -3.657}
{"compound": "COC(=O)CC1CNc2ccccc21", "stereo": "centres undefined", "percent effect": 11.26}
{"compound": "Cn1cc(CC(CN)C(N)=O)cn1", "stereo": "centres undefined", "percent effect": -12.96}

The values are deposited in ChEMBL (CHEMBL3988442, “University of Dundee, Small-Polar-MMV Screening Library” (2021)).